{
  "sequences": {"note": "Sequences of proteins named here, by UniProt entry; tags and fusion partners are left off.", "UniProt Q9DB52": "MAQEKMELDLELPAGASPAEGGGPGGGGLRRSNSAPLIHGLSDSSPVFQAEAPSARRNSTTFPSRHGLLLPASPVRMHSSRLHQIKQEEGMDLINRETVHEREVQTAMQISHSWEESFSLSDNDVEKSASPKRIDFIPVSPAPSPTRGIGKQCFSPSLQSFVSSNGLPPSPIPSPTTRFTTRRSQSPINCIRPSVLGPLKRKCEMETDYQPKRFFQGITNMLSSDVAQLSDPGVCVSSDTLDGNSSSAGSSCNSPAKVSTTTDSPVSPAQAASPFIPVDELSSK"},
  "source": "paper PMC11233601",
  "key": {"B55α-N-FAST": {"biological_target": "T1, B55α-N-FAST (UniProt P63151)", "T1 sequence": "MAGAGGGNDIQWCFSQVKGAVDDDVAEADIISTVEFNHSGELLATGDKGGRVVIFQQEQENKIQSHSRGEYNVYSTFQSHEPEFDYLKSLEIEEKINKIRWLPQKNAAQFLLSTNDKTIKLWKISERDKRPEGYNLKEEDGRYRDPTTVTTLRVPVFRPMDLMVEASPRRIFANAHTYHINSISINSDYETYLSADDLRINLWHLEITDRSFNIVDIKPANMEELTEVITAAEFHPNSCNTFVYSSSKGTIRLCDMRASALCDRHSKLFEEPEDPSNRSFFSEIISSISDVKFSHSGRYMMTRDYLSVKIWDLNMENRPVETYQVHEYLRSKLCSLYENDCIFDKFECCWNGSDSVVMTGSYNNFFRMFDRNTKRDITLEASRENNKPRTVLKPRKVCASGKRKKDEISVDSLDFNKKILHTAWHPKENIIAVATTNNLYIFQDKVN", "assay": "split reporter; Split-FAST: B55α-N-FAST and FAM122A-C-FAST10 co-transfected in U-2 OS cells, HMBR fluorogen added 48 h later, fluorescence microscopy"}, "Myc-B55α wild type": {"biological_target": "T2, Myc-B55α wild type (UniProt P63151)", "T2 sequence": "T1 sequence", "assay": "co-IP; HEK293T cotransfected with FLAG-FAM122A and Myc-B55α WT and mutants; anti-Myc and anti-FLAG beads 3 h or overnight at 4 °C, washes with DIP lysis buffer, western blot"}, "Myc-B55α D197K": {"biological_target": "T3, Myc-B55α D197K (UniProt P63151)", "T3 sequence": "T1 sequence with D197K", "assay": "co-IP; HEK293T cotransfected with FLAG-FAM122A and Myc-B55α WT and mutants; anti-Myc and anti-FLAG beads 3 h or overnight at 4 °C, washes with DIP lysis buffer, western blot"}, "Myc-B55α C239G": {"biological_target": "T4, Myc-B55α C239G (UniProt P63151)", "T4 sequence": "T1 sequence with C239G", "assay": "co-IP; HEK293T cotransfected with FLAG-FAM122A and Myc-B55α WT and mutants; anti-Myc and anti-FLAG beads 3 h or overnight at 4 °C, washes with DIP lysis buffer, western blot"}},
  "note": "Where a chain is given by its changes, count along the chain named. These are yes or no findings as the source states them, for the method shown. Binding seen in cells or lysates may run through a third protein. Some results given as binding are weak or reduced against the parent protein; the word gives no strength. For some of these results: Where a sequence is shown, tags or fusion partners need not be part of it.",
  "data": [
    {"substance": "FAM122A-C-FAST10 (from UniProt Q9DB52 1-284)", "values": [
      {"measurement": "binding", "setting": "B55α-N-FAST", "result": "binds"}
    ]},
    {"substance": "murine FLAG-FAM122A wild type (from UniProt Q9DB52 1-284)", "values": [
      {"measurement": "binding", "setting": "Myc-B55α wild type", "result": "binds"},
      {"measurement": "binding", "setting": "Myc-B55α D197K", "result": "no binding"},
      {"measurement": "binding", "setting": "Myc-B55α C239G", "result": "binds"}
    ]}
  ]
}
